Laboratory results as given in US6953794.
No constants are given. Whether binding was seen depends on the method and setting. Some entries that bind do so weakly or less than the wild type.

Chains of the proteins cited; added tags and fusions are not shown. Lines headed by an entry give the natural chain unless they say otherwise; changes in a name come on top. A line that says so, or that is headed by a name, gives the form on record, which may keep a tag or linker.
hyperphosphorylated newborn tau (P19332, form named): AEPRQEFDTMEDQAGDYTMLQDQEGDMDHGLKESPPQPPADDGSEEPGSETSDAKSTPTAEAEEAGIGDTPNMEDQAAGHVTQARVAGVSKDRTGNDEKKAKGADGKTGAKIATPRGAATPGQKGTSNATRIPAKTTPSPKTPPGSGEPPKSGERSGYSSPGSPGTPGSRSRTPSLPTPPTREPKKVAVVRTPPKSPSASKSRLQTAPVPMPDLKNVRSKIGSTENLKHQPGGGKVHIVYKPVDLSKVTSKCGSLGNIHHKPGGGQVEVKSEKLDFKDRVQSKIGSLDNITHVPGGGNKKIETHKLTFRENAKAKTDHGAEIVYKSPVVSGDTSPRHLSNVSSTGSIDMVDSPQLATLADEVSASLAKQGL
UniProt P10636: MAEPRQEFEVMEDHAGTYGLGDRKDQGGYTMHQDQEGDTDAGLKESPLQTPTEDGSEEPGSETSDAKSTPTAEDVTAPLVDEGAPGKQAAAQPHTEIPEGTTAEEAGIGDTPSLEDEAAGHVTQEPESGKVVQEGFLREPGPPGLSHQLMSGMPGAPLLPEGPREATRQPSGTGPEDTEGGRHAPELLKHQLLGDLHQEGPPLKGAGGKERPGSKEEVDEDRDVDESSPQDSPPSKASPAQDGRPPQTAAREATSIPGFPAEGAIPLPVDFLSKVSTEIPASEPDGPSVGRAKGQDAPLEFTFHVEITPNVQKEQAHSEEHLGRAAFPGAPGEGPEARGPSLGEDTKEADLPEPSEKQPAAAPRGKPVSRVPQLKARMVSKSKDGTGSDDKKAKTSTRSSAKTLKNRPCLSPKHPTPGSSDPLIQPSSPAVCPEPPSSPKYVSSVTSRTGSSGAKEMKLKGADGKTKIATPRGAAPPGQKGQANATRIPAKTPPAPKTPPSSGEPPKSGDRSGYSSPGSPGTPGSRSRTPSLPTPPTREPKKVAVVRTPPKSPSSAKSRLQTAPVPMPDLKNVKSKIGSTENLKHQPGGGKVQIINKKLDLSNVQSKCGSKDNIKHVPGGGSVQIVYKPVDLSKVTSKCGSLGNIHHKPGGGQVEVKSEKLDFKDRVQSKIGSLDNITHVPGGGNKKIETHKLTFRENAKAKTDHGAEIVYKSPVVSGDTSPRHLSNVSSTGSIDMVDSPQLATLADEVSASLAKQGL

Assays:
[1] = target: fetal rat tau (rat) (UniProt P19332); assay: ELISA tau-tau binding assay; newborn tau in the solid phase
[2] = target: fetal rat tau (rat) (UniProt P19332); assay: ELISA tau-tau binding assay; neonatal tau in the solid phase
[3] = target: hyperphosphorylated newborn tau (rat) (UniProt P19332); assay: ELISA tau-tau binding assay; hyperphosphorylated newborn tau in the solid phase

binding [1]: binds
binding [2]: binds
binding [3]: binds
Substance: full-length recombinant human tau protein (htau40) (from UniProt P10636 2-758)
